From publication PMC10926643
Results are given in words; binding and its absence hold for the method and conditions named. Binding seen in cells or lysates may run through a third protein. Some entries that bind do so weakly or less than the wild type. For part of these data: Sequences can lack the tags named with a protein.

T1: FGF12-GFP.myc (UniProt P61328)
T1 sequence: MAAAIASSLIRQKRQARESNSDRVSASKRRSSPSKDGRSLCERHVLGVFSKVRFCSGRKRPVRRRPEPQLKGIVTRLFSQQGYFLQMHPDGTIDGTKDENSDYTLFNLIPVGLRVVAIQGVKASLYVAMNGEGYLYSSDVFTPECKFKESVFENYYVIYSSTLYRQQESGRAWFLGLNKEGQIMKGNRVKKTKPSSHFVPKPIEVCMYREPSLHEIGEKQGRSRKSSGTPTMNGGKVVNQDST

T2: treacle ribosome biogenesis factor 1, TCOF1 (human (endogenous in U2OS)) (UniProt Q13428)
T2 sequence: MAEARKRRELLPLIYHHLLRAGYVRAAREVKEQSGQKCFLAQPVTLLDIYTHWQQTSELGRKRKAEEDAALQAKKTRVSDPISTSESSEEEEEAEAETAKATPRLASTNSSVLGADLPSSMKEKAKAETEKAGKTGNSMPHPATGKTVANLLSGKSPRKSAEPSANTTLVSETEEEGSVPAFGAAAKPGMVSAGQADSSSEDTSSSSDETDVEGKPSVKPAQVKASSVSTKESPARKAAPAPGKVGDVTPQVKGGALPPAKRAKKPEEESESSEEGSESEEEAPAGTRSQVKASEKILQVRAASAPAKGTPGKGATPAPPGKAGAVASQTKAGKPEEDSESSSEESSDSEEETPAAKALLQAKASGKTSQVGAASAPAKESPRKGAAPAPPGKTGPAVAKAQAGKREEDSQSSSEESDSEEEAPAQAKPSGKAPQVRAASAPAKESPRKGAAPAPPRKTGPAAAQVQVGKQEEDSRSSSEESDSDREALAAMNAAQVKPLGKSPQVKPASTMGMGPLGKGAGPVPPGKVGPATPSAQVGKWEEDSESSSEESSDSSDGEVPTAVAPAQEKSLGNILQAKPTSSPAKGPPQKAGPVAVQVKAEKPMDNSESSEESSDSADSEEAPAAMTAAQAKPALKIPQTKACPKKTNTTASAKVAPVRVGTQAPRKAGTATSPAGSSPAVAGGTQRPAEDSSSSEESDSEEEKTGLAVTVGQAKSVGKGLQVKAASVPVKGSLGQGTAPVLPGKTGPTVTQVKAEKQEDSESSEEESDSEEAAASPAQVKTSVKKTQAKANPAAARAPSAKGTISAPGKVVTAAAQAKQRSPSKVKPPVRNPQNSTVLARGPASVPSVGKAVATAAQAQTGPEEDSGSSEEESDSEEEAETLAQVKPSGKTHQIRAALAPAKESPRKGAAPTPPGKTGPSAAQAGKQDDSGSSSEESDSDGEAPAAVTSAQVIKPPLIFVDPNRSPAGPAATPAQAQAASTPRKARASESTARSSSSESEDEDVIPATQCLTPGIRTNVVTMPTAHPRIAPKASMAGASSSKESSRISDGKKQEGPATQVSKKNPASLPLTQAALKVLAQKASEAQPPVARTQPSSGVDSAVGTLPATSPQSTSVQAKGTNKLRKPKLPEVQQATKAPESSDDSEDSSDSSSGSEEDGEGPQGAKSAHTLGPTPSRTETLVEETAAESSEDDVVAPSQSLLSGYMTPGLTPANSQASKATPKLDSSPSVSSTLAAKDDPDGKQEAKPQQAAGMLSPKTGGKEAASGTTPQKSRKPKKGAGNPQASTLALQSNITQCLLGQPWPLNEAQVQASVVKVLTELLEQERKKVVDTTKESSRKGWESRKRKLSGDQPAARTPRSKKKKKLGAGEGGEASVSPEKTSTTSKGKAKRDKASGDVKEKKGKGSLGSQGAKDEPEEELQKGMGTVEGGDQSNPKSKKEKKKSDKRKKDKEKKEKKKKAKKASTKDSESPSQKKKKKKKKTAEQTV

B1: treacle ribosome biogenesis factor 1, TCOF1 (protein, UniProt Q13428 1-1488)
chain: T2 sequence
B2: nucleolar and coiled-body phosphoprotein 1, NOLC1 (protein, UniProt Q14978 1-699)
chain: MADAGIRRVVPSDLYPLVLGFLRDNQLSEVANKFAKATGATQQDANASSLLDIYSFWLKSAKVPERKLQANGPVAKKAKKKASSSDSEDSSEEEEEVQGPPAKKAAVPAKRVGLPPGKAAAKASESSSSEESSDDDDEEDQKKQPVQKGVKPQAKAAKAPPKKAKSSDSDSDSSSEDEPPKNQKPKITPVTVKAQTKAPPKPARAAPKIANGKAASSSSSSSSSSSSDDSEEEKAAATPKKTVPKKQVVAKAPVKAATTPTRKSSSSEDSSSDEEEEQKKPMKNKPGPYSSVPPPSAPPPKKSLGTQPPKKAVEKQQPVESSEDSSDESDSSSEEEKKPPTKAVVSKATTKPPPAKKAAESSSDSSDSDSSEDDEAPSKPAGTTKNSSNKPAVTTKSPAVKPAAAPKQPVGGGQKLLTRKADSSSSEEESSSSEEEKTKKMVATTKPKATAKAALSLPAKQAPQGSRDSSSDSDSSSSEEEEEKTSKSAVKKKPQKVAGGAAPSKPASAKKGKAESSNSSSSDDSSEEEEEKLKGKGSPRPQAPKANGTSALTAQNGKAAKNSEEEEEEKKKAAVVVSKSGSLKKRKQNEAAKEAETPQAKKIKLQTPNTFPKRKKGEKRASSPFRRVREEEIEVDSRVADNSFDAKRGAAGDWGERANQVLKFTKGKSFRHEKTKKKRGSYRGGSISVQVNSIKFDSE

What was measured:
FGF12-GFP.myc = target: T1, FGF12-GFP.myc; test: proximity ligation; in situ PLA in fixed U2OS-FGF12-GFP.myc cells with anti-FGF12, anti-NOLC1 and anti-TCOF1 antibodies; cells treated with siRNA against galectin-1 or non-targeting siRNA; high content quantitative confocal microscopy, number of PLA spots per cell
[1] = target: T2, treacle ribosome biogenesis factor 1, TCOF1 (human (endogenous in U2OS)); test: as above

Binder | binding (FGF12-GFP.myc) | binding [1]
B1 | binds | 
B2 | binds | binds
